Article PMC4527729, “The Inner Membrane Protein PilG Interacts with DNA and the Secretin PilQ in Transformation”
No constants are given. Whether binding was seen depends on the method and setting. For some assays here: Binding can be weak; no strength is given.

Columns and labels:
Test in all cases: far-Western, overlay or dot blot; 1 ug of each purified protein (PilQ proteins, PilN, PilO, PilP, PilF, PilT, ComP, ComL, purified pili, BSA) resolved by SDS-PAGE, blotted on nitrocellulose, renatured overnight at 4°C in renaturing buffer (0.25% gelatin, 0.5% BSA, 0.2% Triton X-100, 10 mM Tris-HCl, 5 mM β-mercaptoethanol, 100 mM NaCl, pH 7.5); membrane incubated 3 h with 1 ug purified full-length or partial PilG in 10 ml renaturing buffer; bound PilG detected with rabbit antiserum; both purified
[1] = target: T1, PilO (N. meningitidis) (UniProt Q7DD78)
T1 sequence: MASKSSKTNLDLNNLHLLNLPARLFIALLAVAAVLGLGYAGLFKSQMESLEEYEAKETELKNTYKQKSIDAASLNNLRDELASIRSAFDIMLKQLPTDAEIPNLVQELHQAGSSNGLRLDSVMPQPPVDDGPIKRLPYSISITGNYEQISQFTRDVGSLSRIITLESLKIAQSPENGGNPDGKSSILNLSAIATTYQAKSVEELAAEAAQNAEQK

[2] = target: T2, PilQ_(25-132) (N. meningitidis) (UniProt Q70M91)
T2 sequence: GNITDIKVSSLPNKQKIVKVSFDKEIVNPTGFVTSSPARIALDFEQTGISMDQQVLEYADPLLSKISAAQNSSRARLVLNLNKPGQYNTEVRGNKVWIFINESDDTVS

[3] = target: T3, PilQ_(350-761) (N. meningitidis) (UniProt Q70M91)
T3 sequence: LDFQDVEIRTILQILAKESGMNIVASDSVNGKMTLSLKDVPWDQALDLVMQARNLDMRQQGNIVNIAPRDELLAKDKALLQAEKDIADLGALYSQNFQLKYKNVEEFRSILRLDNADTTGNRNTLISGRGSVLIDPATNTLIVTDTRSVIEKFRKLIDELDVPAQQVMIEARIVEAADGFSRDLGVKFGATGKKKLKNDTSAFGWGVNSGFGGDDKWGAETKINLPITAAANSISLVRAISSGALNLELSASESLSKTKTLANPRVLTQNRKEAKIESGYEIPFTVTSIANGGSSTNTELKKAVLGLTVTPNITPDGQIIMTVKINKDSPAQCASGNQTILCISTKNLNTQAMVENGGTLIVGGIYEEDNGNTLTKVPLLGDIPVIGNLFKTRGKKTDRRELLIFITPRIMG

[4] = target: T4, PilT (N. meningitidis) (UniProt O85741)
T4 sequence: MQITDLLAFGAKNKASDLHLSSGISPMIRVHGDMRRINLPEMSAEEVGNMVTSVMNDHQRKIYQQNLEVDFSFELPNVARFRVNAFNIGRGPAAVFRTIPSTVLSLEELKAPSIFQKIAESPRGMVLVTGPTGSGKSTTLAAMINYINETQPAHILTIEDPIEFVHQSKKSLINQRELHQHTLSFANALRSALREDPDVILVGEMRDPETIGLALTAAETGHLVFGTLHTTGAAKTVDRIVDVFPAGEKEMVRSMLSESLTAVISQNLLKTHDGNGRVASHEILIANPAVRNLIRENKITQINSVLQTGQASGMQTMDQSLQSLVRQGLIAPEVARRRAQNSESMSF

| Substance | binding [1] | binding [2] | binding [3] | binding [4] |
| --- | --- | --- | --- | --- |
| PilG_(166-410) (N. meningitidis MC58) (domain or fragment) | no binding (tested: 1 μg in 10 ml renaturing buffer) | no binding (tested: 1 μg in 10 ml renaturing buffer) | no binding (tested: 1 μg in 10 ml renaturing buffer) | no binding (tested: 1 μg in 10 ml renaturing buffer) |
| PilG_(1-256) (N. meningitidis MC58) (domain or fragment) | no binding (tested: 1 μg in 10 ml renaturing buffer) | binds | no binding (tested: 1 μg in 10 ml renaturing buffer) | no binding (tested: 1 μg in 10 ml renaturing buffer) |
| PilG full-length (PilG_(FL/1-410)) (N. meningitidis MC58) | no binding (tested: 1 μg in 10 ml renaturing buffer) | binds | no binding (tested: 1 μg in 10 ml renaturing buffer) | no binding (tested: 1 μg in 10 ml renaturing buffer) |
| PilG_(1-178) (N. meningitidis MC58) (domain or fragment) | no binding (tested: 1 μg in 10 ml renaturing buffer) | binds | no binding (tested: 1 μg in 10 ml renaturing buffer) | no binding (tested: 1 μg in 10 ml renaturing buffer) |
| PilG_(257-410) (N. meningitidis MC58) (domain or fragment) | no binding (tested: 1 μg in 10 ml renaturing buffer) | no binding (tested: 1 μg in 10 ml renaturing buffer) | no binding (tested: 1 μg in 10 ml renaturing buffer) | no binding (tested: 1 μg in 10 ml renaturing buffer) |
